From PubChem BioAssay AID540275 (National Center for Advancing Translational Sciences (NCATS), 2011)
Hit rate of the full screen: of about 320,000 compounds, about 620 (0.19%) were called active. This list was built around the results that the source calls inconclusive (neither active nor inactive); the mix of calls is not that of the screen. No stated cut-off is given here; in the data, active means activation above about 80%; inconclusive means between about 30% and that limit; inactive means weaker than that.

Protein sequences, listed by entry. Tags and fused reporters are not part of them.
UniProt Q8NER1, whole entry, looked up: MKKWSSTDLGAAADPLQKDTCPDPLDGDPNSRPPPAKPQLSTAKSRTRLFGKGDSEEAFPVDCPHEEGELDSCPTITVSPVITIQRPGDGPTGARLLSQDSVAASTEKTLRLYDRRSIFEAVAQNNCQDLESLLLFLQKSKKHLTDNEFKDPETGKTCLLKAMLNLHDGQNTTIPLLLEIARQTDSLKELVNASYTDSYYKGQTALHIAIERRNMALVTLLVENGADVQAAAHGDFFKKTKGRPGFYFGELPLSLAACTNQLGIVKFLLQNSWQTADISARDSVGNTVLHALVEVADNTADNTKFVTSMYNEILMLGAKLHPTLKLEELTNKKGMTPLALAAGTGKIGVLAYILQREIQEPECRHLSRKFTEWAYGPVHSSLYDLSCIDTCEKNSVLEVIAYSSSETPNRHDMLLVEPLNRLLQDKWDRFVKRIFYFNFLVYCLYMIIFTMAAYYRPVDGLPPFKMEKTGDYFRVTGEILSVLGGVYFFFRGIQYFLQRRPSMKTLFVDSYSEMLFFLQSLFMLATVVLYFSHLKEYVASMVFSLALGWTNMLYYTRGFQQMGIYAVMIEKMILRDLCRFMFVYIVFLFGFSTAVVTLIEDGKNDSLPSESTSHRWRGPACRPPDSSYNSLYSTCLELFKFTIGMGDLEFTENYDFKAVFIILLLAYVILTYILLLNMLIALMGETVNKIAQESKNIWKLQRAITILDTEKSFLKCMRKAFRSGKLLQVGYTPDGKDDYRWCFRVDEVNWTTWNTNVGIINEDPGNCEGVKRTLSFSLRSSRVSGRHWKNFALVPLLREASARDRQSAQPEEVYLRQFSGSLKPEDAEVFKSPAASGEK

Target: Transient receptor potential cation channel subfamily V member 1 (Homo sapiens) (UniProt Q8NER1)
Assay: HTS Assay for Compounds that Act as Agonists of the Vanilloid Receptor 1; further: 0% is about no effect
Conditions: TRPV1-expressing cells, Fluo-8 calcium influx, agonist mode; at 8.33 µM, active compounds read high
Summary of the method: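 TRPV1-expressing cells were cultured overnight at 35.5C and loaded with Fluo-8 calcium dye for 40 to 90 min at room temperature. After a 10 s baseline, compound was added and calcium influx was read kinetically for 3 min (ex 480/em 520 nm).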

Structure (SMILES)	activation
CCN(CC)S(=O)(=O)c1cc(NC(=O)c2ccc3c(c2)NC(=O)C(C)S3)ccc1C (stereo unspecified)	inconclusive: 66.9%
CN(c1ccc(C(=O)Nc2ccc3c(c2)OCCO3)cc1)S(C)(=O)=O	inconclusive: 37.5%
COc1ccc(-n2ncc3c2CC(C)(C)CC3NC(=O)c2ocnc2C)cc1 (stereo unspecified)	inconclusive: 60.5%
Cc1cc(C(=O)NCc2csc(-c3ccccc3)n2)no1	inactive: 5.89%
COc1ccc(CNCCC(c2ccc(OC(C)C)cc2)c2ccccc2OC)cc1OC (stereo unspecified)	inactive: 23.3%
COc1ccccc1NC(=O)c1sc2nc(N3CCOCC3)c3c(c2c1N)CCCC3	inconclusive: 48.7%
O=C(NC1(Cc2ccccc2)CCN(CCc2cccs2)C1=O)c1ccccc1 (stereo unspecified)	inconclusive: 32.5%
CC(=O)N1CCC2(CC1)C/C(=N\NC(=S)Nc1ccccc1F)c1cc(O)ccc1O2	inactive: -0.811%
CC(C)c1ccc(NC2CCCN(C(=O)CC3CCCC3)C2)cc1 (stereo unspecified)	inconclusive: 58.9%
CC(C)(C)[C@H]1C=C(C(=O)NCc2nc3ccccc3[nH]2)O[C@@H](OCc2ccc(CO)cc2)C1	inactive: 23.3%
O=C1c2ccccc2NC(c2ccccc2O)N1c1ccc(F)cc1 (stereo unspecified)	inconclusive: 39.3%
C=CCNC(=O)/C(C#N)=C\c1cc(Cl)c(OCC)c(OC)c1	inconclusive: 37.1%
COC(=O)/C(=C\C(=O)c1ccc([N+](=O)[O-])cc1)Nc1ccc(OC)cc1	inactive: 0.868%
CCCn1nc(NC(=O)c2cccs2)c2cc3cc(C)ccc3nc21	inconclusive: 65.2%
Cc1ccc(-c2cc(C(F)F)n3ncc(C(=O)N4CCN(c5ccccn5)CC4)c3n2)cc1	inconclusive: 41.6%
Cc1cccc(-c2noc(CN(C)C(=O)COc3ccccc3)n2)c1	inconclusive: 52%
O=C(CCSCc1ccccc1F)NCc1ccc(F)cc1	active: 82.1%
COc1ccc(NC(=O)c2c(NC(=O)Cc3ccccc3)sc3c2CCCC3)cc1	inactive: 16.6%
CC(=O)c1c(C)[nH]c(C(=O)COc2ccc3ccc(=O)oc3c2)c1C	inactive: -3.48%
COc1ccc(CCN(C)C(=O)CSc2ncnc3sccc23)cc1OC	inactive: 3.57%
CCCCN(C(=O)CNC(=O)c1cccs1)C(C(=O)NC1CCCC1)c1ccncc1 (stereo unspecified)	inconclusive: 44.1%
CC(=O)c1cccc(NC(=O)CCC2CCCC2)c1	inconclusive: 72%
O=C(CSCc1c(Cl)cccc1Cl)Nc1ccc2c(c1)OCO2	inconclusive: 63.1%

In the list so far, two have an NH in an aromatic ring.
Structure (SMILES)	activation
CC(C)(C)[C@H]1C=C(C(=O)NCc2nc3ccccc3[nH]2)O[C@@H](OCc2ccc(CO)cc2)C1	inactive: 23.3%
CC(=O)c1c(C)[nH]c(C(=O)COc2ccc3ccc(=O)oc3c2)c1C	inactive: -3.48%

Remaining list, next part

Structure (SMILES)	activation
Cc1ccc(C(=O)Nc2ccc(C(=O)N3CCCCC3)cc2)cc1	inconclusive: 39.6%
O=C(COc1ccc(Cl)cc1)c1ccc(O)cc1O	inconclusive: 48.9%
S=C(Nc1ccc(Cc2ccncc2)cc1)Nc1cccc(Cl)c1	inactive: 2.56%
Cc1ccc(OCc2cc(C(=O)N3CCc4sccc4C3)no2)cc1C	inconclusive: 50.2%
Cc1ccc(NC(=O)N2C3CCCC2CC(NC(=O)C2CC2)C3)cc1 (stereo unspecified)	inactive: 0.433%
O=C(N/N=C/c1cccnc1)c1ccc(S(=O)(=O)N2CCCCCC2)cc1	inconclusive: 74.4%
CCc1ccc(-c2cc(C)no2)cc1S(=O)(=O)N1CCN(c2ccccc2OC)CC1	inconclusive: 30.5%
Cc1ccc(Cn2ccc(NC(=O)c3nn(C)cc3[N+](=O)[O-])n2)cc1	inactive: -2.31%
COc1ccc2[nH]cc(CCNC(=O)CCC3CCCCC3)c2c1	inconclusive: 49.6%
CCOC(=O)C1CCN(C(=O)Nc2ccc(OC(F)(F)F)cc2)CC1	inconclusive: 55.5%
CCOC(=O)c1c(-c2ccc(OC)cc2)oc2ccc(OCC(N)=O)cc12	inconclusive: 33.5%
O=C(COC(=O)c1ccc(F)c(S(=O)(=O)N2CCCCC2)c1)NCc1ccc(F)cc1	inconclusive: 40.1%
O=[N+]([O-])c1ccc(N2CCN(C(=S)NC3CCCCC3)CC2)cc1	inactive: 0.8%
CC(C)c1ccc(C(=O)NC(=S)Nc2ccc3[nH]c(=O)[nH]c3c2)cc1	inconclusive: 46.3%
C=CCN1C(=O)NC2(O)C(=O)c3ccccc3C12O (stereo unspecified)	inconclusive: 44.4%
O=C(NCCC(=O)N(CCc1ccccc1)Cc1ccccc1)c1ccccc1Cl	inconclusive: 41.6%
COC(=O)c1c(O)cc(C(C)(C)C)n(-c2ccc(F)cc2)c1=O	inactive: 2.11%
Cc1ccc(C2CCN(C(=O)Nc3ccc(F)cc3)C2)cc1 (stereo unspecified)	active: 82.9%
COc1ccc(NC(=O)c2cc3ccccc3o2)cc1	inconclusive: 78%
COc1ccc(CNC(=O)CCC(=O)c2ccc(C)cc2)cc1OC	inconclusive: 42.3%
O=C(CC12CC3CC(CC(C3)C1)C2)NC(=S)N1CCCCC1	inconclusive: 38.3%
COc1ccc2c(c1)CCc1c(C(=O)N3CCCC3)noc1-2	inconclusive: 35.8%
C=CSc1sc(Cl)c(N2CCOCC2)c1[N+](=O)[O-]	inactive: 4.18%

Structure (SMILES)	activation
COc1cccc(CNC(=O)N2CCN(S(=O)(=O)c3ccc(Cl)cc3)CC2)c1	inconclusive: 37.8%
CC(C)(C)c1ccc(-n2ncc3c2CCCC3NC(=O)C2(C(N)=O)CC2)cc1 (stereo unspecified)	inconclusive: 43.6%
Cc1cccc(Oc2ccc(C(=O)NC3CCSC3=O)cn2)c1C (stereo unspecified)	inconclusive: 44.6%
CC(C)Cc1nnc(NC(=O)CCC(=O)N2CCN(c3ccc([N+](=O)[O-])cc3)CC2)s1	inactive: -1.84%
Nn1c(SCc2cccc(F)c2)nnc1-c1cccnc1	inactive: -4.39%
N/C(=N\OC(=O)c1ccc(F)cc1)c1ccccc1	inactive: 3.81%
COc1ccc(Cn2nnnc2C(c2cccs2)N2CCN(c3ccc([N+](=O)[O-])cc3)CC2)cc1 (stereo unspecified)	inactive: 1.58%
O=C(NCCCNC(=O)c1cc(Cl)ccc1Cl)c1ccco1	inactive: -1.93%
Cc1ccc(C(=O)N2CC(=O)Nc3ccc(F)cc3C2c2ccc(F)cc2)cc1 (stereo unspecified)	inconclusive: 31%
CC1CCCCC1NC(=O)/C(C#N)=C/c1ccccc1F (stereo unspecified)	inactive: 29.9%
CC1CCCCN1C(=O)CSc1nnc(-c2ccccc2F)o1 (stereo unspecified)	inconclusive: 40.4%
CSc1nc2n(n1)C(c1ccccn1)C1=C(CC(C)(C)CC1=O)N2 (stereo unspecified)	inactive: 3%
CCN(CC)c1ccc(NC(=O)C2=CCN(S(=O)(=O)c3ccc(F)cc3)CC2)c(C)c1	inconclusive: 78.8%
Cc1ccc(C)c(-n2nnnc2Sc2nnnn2-c2ccccc2)c1	inactive: 9.24%
Cc1cccc(OCc2ccc(C(=O)Nc3ccc(F)cc3)cc2)c1	inconclusive: 31.1%
O=C(Nc1ccc(F)cc1)NC1CCCCCCC1	inconclusive: 60.5%
CCCn1c(CCc2ccccc2)n[nH]c1=S	inactive: 0.572%
CCCCCCOc1ccc(C(=O)NCCCn2ccnc2)cc1	inconclusive: 43.4%
CN(Cc1ccccc1)S(=O)(=O)c1ccc(NC(=S)NC(=O)C2CCCC2)cc1	inactive: -5.03%
O=[N+]([O-])c1ccc2nc(N3CCCC3)sc2c1	inactive: -0.099%
Cc1ccc(C(=O)N2CCC3(CC2)Oc2ccc(F)cc2C(=O)C32CC(c3cccnc3)=NO2)s1 (stereo unspecified)	inconclusive: 45.1%
CC(C)c1ccc(NC(=O)c2snc3ccc(Cl)cc23)cc1	inconclusive: 30.4%
S=C(Nc1ccc(Br)cc1)NC1CCCCC1	inconclusive: 32.4%

Structure (SMILES)	activation
C/C(=N/OC(=O)c1ccc(C)cc1)c1cccs1	inactive: 26.3%
CN(C)CCNC(=O)/C(=N\O)c1ccccn1	inactive: -0.158%
CCc1cc2c(N3CCN(c4ccccc4)CC3)ncnc2s1	inconclusive: 34.7%
O=C(CCn1c(=O)[nH]c2ccsc2c1=O)N(CCc1ccccc1)Cc1ccccc1	inconclusive: 42.7%
O=C(N/N=C/c1sc(=O)n(-c2ccccc2)c1Cl)c1ccncc1	inactive: 7.13%
Cc1nn(Cc2ccccc2)c(C)c1CNC(=O)c1ccc(F)c(S(=O)(=O)N2CCOCC2)c1	inconclusive: 40.4%
CCOC(=O)N1CCc2[nH]c3ccc(C)cc3c2C1	inconclusive: 61.3%
O=S(=O)(NCCC1=CCCCC1)c1ccccc1Br	inactive: 24.7%
O=C(c1ccc(F)cc1)c1ccc(N2CCCC2)cc1	inconclusive: 32.8%
CC(C)(C)OC(=O)N[C@@H](C(=O)OC(C)(C)C)c1ccc2c(c1)OCO2	inconclusive: 35.6%
COc1cccc(Cn2c(Oc3ccccc3)nc3c2c(=O)n(C)c(=O)n3C)c1	inconclusive: 33.3%
COc1cc(NC(=O)c2ccccc2)c(OC)cc1NC(=O)CN1C(=O)N(C)C2(CCCCC2)C1=O	inactive: 4.97%
O=C(N/N=C\c1c(O)ccc2ccccc12)c1ccc(Cn2cccn2)o1	inconclusive: 32.6%
O=C(Nc1ccc(Cl)cc1)C1CCCN(c2ncnc3c2nc2n3CCCCC2)C1 (stereo unspecified)	inconclusive: 41.7%
c1ccc(-c2csc(N3CCN(c4ccccn4)CC3)n2)cc1	active: 101%
CC(Oc1ccc(Br)cc1)C(=O)NCC1(N2CCCCC2)CCCCC1 (stereo unspecified)	inconclusive: 30.7%
CC(NC(=O)Nc1ccc(Cl)cc1)c1ccc2c(c1)OCO2 (stereo unspecified)	inconclusive: 43.6%
Cc1cccc(NC(=S)N(Cc2ccco2)C(C)c2cccs2)c1 (stereo unspecified)	inactive: 1.47%
CCC1Nc2ncnc(N3CCCCC3)c2N(Cc2ccccc2)C1=O (stereo unspecified)	inconclusive: 67.4%
COc1ccc(C)cc1Nc1nc(N)c2ccccc2n1	inactive: 7.41%
O=C(OCC1CC(c2ccccc2)=NO1)c1ccc(Br)cc1 (stereo unspecified)	inconclusive: 33.1%
CCc1ccc(NC(=O)Nc2ccc3c(c2)N(C)C(=O)CS3)cc1	active: 87.6%
